{"sequences": {"note": "Protein sequences, listed by entry. Tags and fused reporters are not part of them.", "UniProt Q05940, whole entry": "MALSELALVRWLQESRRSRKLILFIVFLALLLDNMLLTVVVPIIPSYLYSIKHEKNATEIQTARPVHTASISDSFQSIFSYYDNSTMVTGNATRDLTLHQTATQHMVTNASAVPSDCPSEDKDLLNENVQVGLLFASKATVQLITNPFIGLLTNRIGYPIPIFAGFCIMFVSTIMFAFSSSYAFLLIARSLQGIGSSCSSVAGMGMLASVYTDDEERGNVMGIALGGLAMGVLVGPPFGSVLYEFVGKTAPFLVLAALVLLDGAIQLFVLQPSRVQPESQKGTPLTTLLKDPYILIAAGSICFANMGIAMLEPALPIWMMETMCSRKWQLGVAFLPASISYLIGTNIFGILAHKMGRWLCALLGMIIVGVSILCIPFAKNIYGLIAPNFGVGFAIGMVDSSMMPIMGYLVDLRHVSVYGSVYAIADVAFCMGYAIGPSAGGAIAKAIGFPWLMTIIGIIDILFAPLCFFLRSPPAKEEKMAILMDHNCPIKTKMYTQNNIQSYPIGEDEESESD"}, "source": "patent US20230091671A1", "about": "(priority 2020, published 2023)", "target": "vesicular monoamine transporter 2 (VMAT2) (Homo sapiens, UniProt Q05940)"}
{"smiles": "CN1CC[C@]23c4c5ccc(O)c4O[C@H]2[C@@H](O)C=C[C@H]3[C@H]1C5", "note": "[morphine]", "values": [{"measurement": "blockade of neurotransmitter uptake by VMAT / VMAT2", "result": "but not morphine"}]}
